Measured values taken from the supplement of paper PMC12823440, “Inhibitors supercharge kinase turnover through native proteolytic circuits” (Nature, 2025).
Structures can show the parent of a compound that is named as a salt. The list shows a part of the results. Hit calls seldom repeat between salt and free forms of one compound.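 In K562 cells expressing nanoluciferase-fused kinases, luminescence was recorded at 4 h intervals between 2 and 18 h, normalized as percent of control with DMSO at 100% and a positive control at 0%. A significant (2 sigma) signal drop marks a time point as decreased. The authors' rule for a hit is not shown and takes in more than the number of time points.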

Protein sequences, listed by entry. Tags and fused reporters are not part of them. Lines headed by an entry give the natural chain unless they say otherwise; changes in a name come on top.
UniProt Q06187: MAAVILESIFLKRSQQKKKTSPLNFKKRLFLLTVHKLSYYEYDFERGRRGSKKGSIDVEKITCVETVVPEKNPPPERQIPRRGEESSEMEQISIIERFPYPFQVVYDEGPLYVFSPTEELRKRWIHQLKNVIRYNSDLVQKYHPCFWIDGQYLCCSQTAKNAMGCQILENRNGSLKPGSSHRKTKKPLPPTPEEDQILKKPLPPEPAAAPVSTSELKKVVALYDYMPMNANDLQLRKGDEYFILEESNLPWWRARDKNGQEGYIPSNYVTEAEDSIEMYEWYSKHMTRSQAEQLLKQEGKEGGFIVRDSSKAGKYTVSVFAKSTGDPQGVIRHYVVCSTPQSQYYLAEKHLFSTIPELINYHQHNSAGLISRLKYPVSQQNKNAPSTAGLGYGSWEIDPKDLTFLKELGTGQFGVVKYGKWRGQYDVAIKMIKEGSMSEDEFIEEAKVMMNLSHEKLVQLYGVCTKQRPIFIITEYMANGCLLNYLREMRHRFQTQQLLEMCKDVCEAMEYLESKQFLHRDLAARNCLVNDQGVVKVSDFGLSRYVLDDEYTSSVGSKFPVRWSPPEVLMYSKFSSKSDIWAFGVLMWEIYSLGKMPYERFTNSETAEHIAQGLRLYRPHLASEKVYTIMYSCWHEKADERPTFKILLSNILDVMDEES
UniProt Q15131: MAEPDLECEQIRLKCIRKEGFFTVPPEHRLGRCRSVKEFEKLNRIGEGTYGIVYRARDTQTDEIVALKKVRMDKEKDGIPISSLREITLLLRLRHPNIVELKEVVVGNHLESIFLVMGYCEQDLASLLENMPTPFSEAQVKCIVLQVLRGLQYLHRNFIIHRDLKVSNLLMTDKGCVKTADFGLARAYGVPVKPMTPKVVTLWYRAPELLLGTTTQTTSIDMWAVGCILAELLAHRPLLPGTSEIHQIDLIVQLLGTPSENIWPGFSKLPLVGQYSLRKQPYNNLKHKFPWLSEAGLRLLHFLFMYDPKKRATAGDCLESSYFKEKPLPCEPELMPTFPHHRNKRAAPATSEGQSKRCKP
UniProt Q00526: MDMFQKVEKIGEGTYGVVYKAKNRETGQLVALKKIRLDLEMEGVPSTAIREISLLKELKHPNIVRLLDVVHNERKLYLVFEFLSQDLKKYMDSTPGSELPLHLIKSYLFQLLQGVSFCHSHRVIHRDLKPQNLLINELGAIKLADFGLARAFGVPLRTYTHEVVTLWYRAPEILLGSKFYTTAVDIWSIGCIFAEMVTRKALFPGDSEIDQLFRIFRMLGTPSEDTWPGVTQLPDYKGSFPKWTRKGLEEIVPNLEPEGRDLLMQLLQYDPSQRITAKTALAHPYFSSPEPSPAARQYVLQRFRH
UniProt Q00535, whole entry, looked up: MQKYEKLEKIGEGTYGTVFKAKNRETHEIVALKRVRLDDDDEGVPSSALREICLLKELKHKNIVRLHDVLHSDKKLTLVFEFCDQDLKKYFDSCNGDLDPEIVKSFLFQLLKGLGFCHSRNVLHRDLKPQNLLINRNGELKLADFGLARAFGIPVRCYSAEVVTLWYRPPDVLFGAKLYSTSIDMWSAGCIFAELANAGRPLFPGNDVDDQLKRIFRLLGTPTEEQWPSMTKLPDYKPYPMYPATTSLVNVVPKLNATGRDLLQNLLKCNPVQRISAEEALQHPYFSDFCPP
UniProt Q00534, whole entry: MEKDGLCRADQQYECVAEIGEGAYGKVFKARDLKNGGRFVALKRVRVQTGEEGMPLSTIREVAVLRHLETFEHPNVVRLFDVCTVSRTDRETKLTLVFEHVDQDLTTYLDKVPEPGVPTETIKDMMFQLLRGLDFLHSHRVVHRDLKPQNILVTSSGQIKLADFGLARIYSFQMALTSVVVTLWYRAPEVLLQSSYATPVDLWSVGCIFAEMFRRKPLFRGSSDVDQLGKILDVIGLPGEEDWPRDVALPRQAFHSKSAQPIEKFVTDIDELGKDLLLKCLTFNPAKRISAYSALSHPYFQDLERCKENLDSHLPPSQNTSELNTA
UniProt P50613: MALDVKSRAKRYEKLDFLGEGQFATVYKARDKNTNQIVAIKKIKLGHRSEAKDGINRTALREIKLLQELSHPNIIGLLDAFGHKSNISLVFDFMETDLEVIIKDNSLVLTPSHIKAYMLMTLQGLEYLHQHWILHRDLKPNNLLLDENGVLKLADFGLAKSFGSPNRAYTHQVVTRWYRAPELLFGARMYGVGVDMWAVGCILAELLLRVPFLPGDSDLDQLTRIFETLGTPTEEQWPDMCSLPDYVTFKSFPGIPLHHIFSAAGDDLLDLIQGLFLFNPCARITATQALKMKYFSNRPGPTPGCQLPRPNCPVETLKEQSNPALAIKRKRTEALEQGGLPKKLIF
UniProt O96017, whole entry: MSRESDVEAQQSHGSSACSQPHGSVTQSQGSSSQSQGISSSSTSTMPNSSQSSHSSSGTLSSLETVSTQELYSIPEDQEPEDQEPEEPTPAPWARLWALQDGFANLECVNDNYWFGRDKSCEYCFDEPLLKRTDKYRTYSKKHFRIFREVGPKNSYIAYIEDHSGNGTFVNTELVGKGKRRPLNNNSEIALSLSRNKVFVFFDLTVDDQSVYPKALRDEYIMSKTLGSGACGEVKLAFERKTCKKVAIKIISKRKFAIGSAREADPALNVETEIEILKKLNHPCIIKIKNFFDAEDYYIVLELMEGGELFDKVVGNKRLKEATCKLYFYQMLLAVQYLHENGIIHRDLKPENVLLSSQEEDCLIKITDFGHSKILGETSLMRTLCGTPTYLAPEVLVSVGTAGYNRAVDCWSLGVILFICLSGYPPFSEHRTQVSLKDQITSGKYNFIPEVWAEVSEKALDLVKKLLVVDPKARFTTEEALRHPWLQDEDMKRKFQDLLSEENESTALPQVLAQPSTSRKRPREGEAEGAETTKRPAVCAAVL
UniProt P07333, whole entry: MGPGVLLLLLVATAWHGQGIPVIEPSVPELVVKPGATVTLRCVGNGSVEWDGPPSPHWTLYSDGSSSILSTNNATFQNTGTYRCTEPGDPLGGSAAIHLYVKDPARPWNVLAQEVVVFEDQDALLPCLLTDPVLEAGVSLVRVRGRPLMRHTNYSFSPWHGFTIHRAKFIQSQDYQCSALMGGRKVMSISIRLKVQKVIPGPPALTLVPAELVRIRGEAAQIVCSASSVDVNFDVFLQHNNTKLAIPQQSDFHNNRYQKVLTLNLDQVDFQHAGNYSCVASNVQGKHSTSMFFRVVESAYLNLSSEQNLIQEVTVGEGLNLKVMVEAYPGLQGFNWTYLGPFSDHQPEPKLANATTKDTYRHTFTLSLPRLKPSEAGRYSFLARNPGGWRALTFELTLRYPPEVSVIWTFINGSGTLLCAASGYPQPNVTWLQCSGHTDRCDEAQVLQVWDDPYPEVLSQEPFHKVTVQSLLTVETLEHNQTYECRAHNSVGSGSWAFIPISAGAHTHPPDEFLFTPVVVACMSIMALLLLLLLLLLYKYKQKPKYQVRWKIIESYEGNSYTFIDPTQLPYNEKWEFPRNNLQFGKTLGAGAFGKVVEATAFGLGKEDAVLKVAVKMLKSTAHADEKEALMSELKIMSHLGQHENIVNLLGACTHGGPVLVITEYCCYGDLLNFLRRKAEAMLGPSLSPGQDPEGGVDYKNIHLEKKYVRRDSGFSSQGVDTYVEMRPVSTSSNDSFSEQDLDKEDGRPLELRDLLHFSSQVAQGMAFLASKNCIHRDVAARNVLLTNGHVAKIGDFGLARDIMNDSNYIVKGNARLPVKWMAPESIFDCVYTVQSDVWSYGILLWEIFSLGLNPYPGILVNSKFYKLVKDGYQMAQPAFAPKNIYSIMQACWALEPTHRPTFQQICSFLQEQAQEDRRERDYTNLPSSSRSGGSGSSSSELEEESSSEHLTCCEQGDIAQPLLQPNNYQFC
UniProt P41240: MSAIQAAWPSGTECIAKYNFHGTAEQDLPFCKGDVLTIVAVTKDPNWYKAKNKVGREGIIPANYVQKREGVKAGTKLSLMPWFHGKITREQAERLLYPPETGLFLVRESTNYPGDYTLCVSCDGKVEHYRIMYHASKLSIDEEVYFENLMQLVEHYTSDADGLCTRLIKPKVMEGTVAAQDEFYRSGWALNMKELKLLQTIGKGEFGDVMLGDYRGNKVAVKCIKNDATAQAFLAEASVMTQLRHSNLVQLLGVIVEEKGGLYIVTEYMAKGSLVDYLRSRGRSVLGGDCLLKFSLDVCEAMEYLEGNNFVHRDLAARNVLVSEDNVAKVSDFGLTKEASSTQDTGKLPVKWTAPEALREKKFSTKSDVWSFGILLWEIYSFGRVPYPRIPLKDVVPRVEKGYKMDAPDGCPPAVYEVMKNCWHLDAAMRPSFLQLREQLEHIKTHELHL
UniProt P48729: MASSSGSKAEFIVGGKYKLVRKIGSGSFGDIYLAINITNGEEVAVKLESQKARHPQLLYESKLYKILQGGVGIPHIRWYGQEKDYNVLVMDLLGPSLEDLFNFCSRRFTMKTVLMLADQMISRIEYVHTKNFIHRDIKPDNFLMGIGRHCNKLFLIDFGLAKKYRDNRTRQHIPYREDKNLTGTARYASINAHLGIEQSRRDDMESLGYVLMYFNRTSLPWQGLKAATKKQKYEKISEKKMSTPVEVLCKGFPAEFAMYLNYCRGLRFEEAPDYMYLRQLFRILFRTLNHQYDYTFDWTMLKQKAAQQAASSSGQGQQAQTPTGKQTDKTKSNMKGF
UniProt P48730: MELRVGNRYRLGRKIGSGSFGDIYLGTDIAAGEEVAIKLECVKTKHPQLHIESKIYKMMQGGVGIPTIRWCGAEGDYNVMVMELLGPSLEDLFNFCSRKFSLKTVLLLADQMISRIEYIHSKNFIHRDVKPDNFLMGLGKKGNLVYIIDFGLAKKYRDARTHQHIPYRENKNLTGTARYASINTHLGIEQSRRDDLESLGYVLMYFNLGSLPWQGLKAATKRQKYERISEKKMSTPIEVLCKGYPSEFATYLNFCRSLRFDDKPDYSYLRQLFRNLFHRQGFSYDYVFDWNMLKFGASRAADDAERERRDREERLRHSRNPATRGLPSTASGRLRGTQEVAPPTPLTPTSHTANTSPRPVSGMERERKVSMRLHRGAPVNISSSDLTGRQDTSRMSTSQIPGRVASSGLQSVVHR
UniProt Q08345: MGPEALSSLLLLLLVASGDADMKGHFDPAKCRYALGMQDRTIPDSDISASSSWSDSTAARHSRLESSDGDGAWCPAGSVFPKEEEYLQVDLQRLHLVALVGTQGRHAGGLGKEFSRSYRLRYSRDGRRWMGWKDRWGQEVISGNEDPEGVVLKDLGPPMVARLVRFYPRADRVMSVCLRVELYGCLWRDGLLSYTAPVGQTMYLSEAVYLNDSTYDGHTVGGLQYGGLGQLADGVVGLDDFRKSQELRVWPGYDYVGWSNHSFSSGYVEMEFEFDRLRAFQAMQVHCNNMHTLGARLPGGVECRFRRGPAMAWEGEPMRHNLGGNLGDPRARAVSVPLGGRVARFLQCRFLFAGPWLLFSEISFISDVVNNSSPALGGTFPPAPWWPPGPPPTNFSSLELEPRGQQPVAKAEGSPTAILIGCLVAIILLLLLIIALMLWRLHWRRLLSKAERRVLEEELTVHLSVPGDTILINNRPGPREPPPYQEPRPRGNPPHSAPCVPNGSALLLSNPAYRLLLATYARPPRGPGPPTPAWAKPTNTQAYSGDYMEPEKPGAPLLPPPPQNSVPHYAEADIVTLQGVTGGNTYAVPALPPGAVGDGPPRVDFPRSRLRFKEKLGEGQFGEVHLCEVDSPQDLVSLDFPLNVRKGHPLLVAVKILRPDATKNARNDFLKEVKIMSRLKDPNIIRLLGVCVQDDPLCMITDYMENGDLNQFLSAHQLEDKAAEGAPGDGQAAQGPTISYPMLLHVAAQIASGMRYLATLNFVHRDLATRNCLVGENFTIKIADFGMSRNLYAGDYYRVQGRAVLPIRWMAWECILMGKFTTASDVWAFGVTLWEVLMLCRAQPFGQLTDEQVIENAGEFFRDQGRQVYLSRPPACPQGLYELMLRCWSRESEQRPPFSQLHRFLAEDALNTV
UniProt Q9Y463, whole entry, looked up: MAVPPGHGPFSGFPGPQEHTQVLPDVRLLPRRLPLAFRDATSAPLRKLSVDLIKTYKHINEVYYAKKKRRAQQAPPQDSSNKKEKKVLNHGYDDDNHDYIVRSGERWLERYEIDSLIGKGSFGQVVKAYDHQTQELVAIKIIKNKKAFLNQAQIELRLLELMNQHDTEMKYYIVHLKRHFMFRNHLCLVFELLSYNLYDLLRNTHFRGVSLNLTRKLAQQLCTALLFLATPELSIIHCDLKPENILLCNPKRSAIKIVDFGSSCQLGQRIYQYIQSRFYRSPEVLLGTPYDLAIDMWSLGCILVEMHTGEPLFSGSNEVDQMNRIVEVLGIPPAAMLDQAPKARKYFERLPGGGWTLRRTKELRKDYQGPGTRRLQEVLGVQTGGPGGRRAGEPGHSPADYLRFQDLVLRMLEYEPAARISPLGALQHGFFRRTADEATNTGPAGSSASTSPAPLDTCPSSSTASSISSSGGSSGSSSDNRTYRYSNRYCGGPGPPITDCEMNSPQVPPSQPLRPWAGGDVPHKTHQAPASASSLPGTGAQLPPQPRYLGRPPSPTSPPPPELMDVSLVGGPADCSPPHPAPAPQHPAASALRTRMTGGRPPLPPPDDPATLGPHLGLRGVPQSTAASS

Tests used:
Experiment in all cases: kinase-Nluc reporter destabilization hit call (1 = scored as downregulated) (binary); higher = compound decreases kinase abundance
Details in all cases: K562; 2-18 h
[1] = test system: BRAF_V600E
[2] = biological target: BTK (UniProt Q06187)
[3] = biological target: CAMK2A (UniProt Q9UQM7)
[4] = biological target: CAMK2G (UniProt Q13555)
[5] = biological target: CDK10 (UniProt Q15131)
[6] = biological target: CDK2 (UniProt P24941)
[7] = biological target: CDK3 (UniProt Q00526)
[8] = biological target: CDK4 (UniProt P11802)
[9] = biological target: CDK5 (UniProt Q00535)
[10] = biological target: CDK6 (UniProt Q00534)
[11] = biological target: CDK7 (UniProt P50613)
[12] = biological target: CDK9 (UniProt P50750)
[13] = biological target: CHEK2 (UniProt O96017)
[14] = biological target: CSF1R (UniProt P07333)
[15] = biological target: CSK (UniProt P41240)
[16] = biological target: CSNK1A1 (UniProt P48729)
[17] = biological target: CSNK1D (UniProt P48730)
[18] = biological target: DDR1 (UniProt Q08345)
[19] = biological target: DYRK1B (UniProt Q9Y463)
[20] = biological target: DYRK2 (UniProt Q92630)

Measured: kinase-Nluc reporter destabilization hit call

Nc1ncnc2c1c(-c1ccc(Oc3ccccc3)cc1)nn2C1CCCC1 (2.5 µM)
inactive: [1] 0 | [2] 0 | [3] 0 | [4] 0 | [5] 0 | [6] 0 | [7] 0 | [8] 0 | [9] 0 | [10] 0 | [11] 0 | [12] 0 | [13] 0 | [14] 0 | [15] 0 | [16] 0 | [17] 0 | [18] 0 | [19] 0 | [20] 0

O=C1NC(=O)/C(=C\c2cccc(C(F)(F)F)c2)S1 (2.5 µM)
inactive: [1] 0 | [2] 0 | [3] 0 | [4] 0 | [5] 0 | [6] 0 | [7] 0 | [8] 0 | [9] 0 | [10] 0 | [11] 0 | [12] 0 | [13] 0 | [14] 0 | [15] 0 | [16] 0 | [17] 0 | [18] 0 | [19] 0 | [20] 0

Oc1ccc(Nc2nc(-c3ccc(Cl)cc3)cs2)cc1 (10 µM)
inactive: [1] 0 | [2] 0 | [3] 0 | [4] 0 | [5] 0 | [6] 0 | [7] 0 | [8] 0 | [9] 0 | [10] 0 | [11] 0 | [12] 0 | [13] 0 | [14] 0 | [15] 0 | [16] 0 | [17] 0 | [18] 0 | [19] 0 | [20] 0

CN(C)CCCOc1ccc(-c2ccc3ncc4c(c3c2)n(C2CCOCC2)c(=O)n4C)cn1 (2 µM)
inactive: [1] 0 | [2] 0 | [3] 0 | [4] 0 | [5] 0 | [6] 0 | [7] 0 | [8] 0 | [9] 0 | [10] 0 | [11] 0 | [12] 0 | [13] 0 | [14] 0 | [15] 0 | [16] 0 | [17] 0 | [18] 0 | [19] 0 | [20] 0

O=c1[nH]c(=O)n([C@@H]2O[C@H](CO)[C@@H](O)[C@@H]2O)cc1/C=C/Br [Sorivudine] (10 µM)
inactive: [1] 0 | [2] 0 | [3] 0 | [4] 0 | [5] 0 | [6] 0 | [7] 0 | [8] 0 | [9] 0 | [10] 0 | [11] 0 | [12] 0 | [13] 0 | [14] 0 | [15] 0 | [16] 0 | [17] 0 | [18] 0 | [19] 0 | [20] 0

An excerpt from above in order of molecular weight, rising.
O=C1NC(=O)/C(=C\c2cccc(C(F)(F)F)c2)S1 (2.5 µM)
inactive: [1] 0 | [2] 0 | [3] 0 | [4] 0 | [5] 0 | [6] 0 | [7] 0 | [8] 0 | [9] 0 | [10] 0 | [11] 0 | [12] 0 | [13] 0 | [14] 0 | [15] 0 | [16] 0 | [17] 0 | [18] 0 | [19] 0 | [20] 0

O=c1[nH]c(=O)n([C@@H]2O[C@H](CO)[C@@H](O)[C@@H]2O)cc1/C=C/Br [Sorivudine] (10 µM)
inactive: [1] 0 | [2] 0 | [3] 0 | [4] 0 | [5] 0 | [6] 0 | [7] 0 | [8] 0 | [9] 0 | [10] 0 | [11] 0 | [12] 0 | [13] 0 | [14] 0 | [15] 0 | [16] 0 | [17] 0 | [18] 0 | [19] 0 | [20] 0

Nc1ncnc2c1c(-c1ccc(Oc3ccccc3)cc1)nn2C1CCCC1 (2.5 µM)
inactive: [1] 0 | [2] 0 | [3] 0 | [4] 0 | [5] 0 | [6] 0 | [7] 0 | [8] 0 | [9] 0 | [10] 0 | [11] 0 | [12] 0 | [13] 0 | [14] 0 | [15] 0 | [16] 0 | [17] 0 | [18] 0 | [19] 0 | [20] 0

Next results:

C=CC(=O)Nc1cccc(Nc2nc(Nc3ccc(N4CCN(C(C)=O)CC4)cc3OC)ncc2C(F)(F)F)c1 [Rociletinib] (10 µM)
inactive: [1] 0 | [2] 0 | [3] 0 | [4] 0 | [5] 0 | [6] 0 | [7] 0 | [8] 0 | [9] 0 | [10] 0 | [11] 0 | [12] 0 | [13] 0 | [14] 0 | [15] 0 | [16] 0 | [17] 0 | [18] 0 | [19] 0 | [20] 0

CC(=O)NC1CC(n2cnc(NC(=O)Cc3ccc4ccccc4c3)c2)C1 (stereo not given) (10 µM)
inactive: [1] 0 | [2] 0 | [3] 0 | [4] 0 | [5] 0 | [6] 0 | [7] 0 | [8] 0 | [9] 0 | [10] 0 | [11] 0 | [12] 0 | [13] 0 | [14] 0 | [15] 0 | [16] 0 | [17] 0 | [18] 0 | [19] 0 | [20] 0

CC#CC(=O)N1CC[C@@H](n2c(=O)n(-c3ccc(Oc4ccccc4)cc3)c3c(N)ncnc32)C1 [Tirabrutinib (hydrochloride)] (10 µM)
inactive: [1] 0 | [2] 0 | [3] 0 | [4] 0 | [5] 0 | [6] 0 | [7] 0 | [8] 0 | [9] 0 | [10] 0 | [11] 0 | [12] 0 | [13] 0 | [14] 0 | [15] 0 | [16] 0 | [17] 0 | [18] 0 | [19] 0 | [20] 0

CCOc1ccc2cc(-c3nn(CC4CCN(C)CC4)c4ncnc(N)c34)ccc2n1 (10 µM)
inactive: [1] 0 | [2] 0 | [3] 0 | [4] 0 | [5] 0 | [6] 0 | [7] 0 | [8] 0 | [9] 0 | [10] 0 | [11] 0 | [12] 0 | [13] 0 | [14] 0 | [15] 0 | [16] 0 | [17] 0 | [18] 0 | [19] 0 | [20] 0

CN1CCN(c2cnc3c(C4CCN(C(=O)c5ccc(OC(F)(F)F)cc5N)CC4)ncnc3c2)CC1 (10 µM)
inactive: [1] 0 | [2] 0 | [3] 0 | [4] 0 | [5] 0 | [6] 0 | [7] 0 | [8] 0 | [9] 0 | [10] 0 | [11] 0 | [12] 0 | [13] 0 | [14] 0 | [15] 0 | [16] 0 | [17] 0 | [18] 0 | [19] 0 | [20] 0

COc1ncc(Cl)cc1S(=O)(=O)Nc1ccc(F)c(C#Cc2cnc(N)nc2)c1F (2.5 µM)
inactive: [1] 0 | [2] 0 | [3] 0 | [4] 0 | [5] 0 | [6] 0 | [7] 0 | [8] 0 | [9] 0 | [10] 0 | [11] 0 | [12] 0 | [13] 0 | [14] 0 | [15] 0 | [17] 0 | [18] 0 | [19] 0 | [20] 0
active: [16] 1

N#Cc1c(C2CCNCC2)cc(-c2c(O)cccc2OCC2CC2)nc1N [ACHP (Hydrochloride)] (10 µM)
inactive: [1] 0 | [2] 0 | [3] 0 | [4] 0 | [5] 0 | [6] 0 | [7] 0 | [8] 0 | [9] 0 | [10] 0 | [11] 0 | [12] 0 | [13] 0 | [14] 0 | [15] 0 | [16] 0 | [17] 0 | [18] 0 | [19] 0 | [20] 0

C[C@@H](c1ccc(-c2ccccc2)c(F)c1)c1cc(NC(=N)N2CCOCC2)on1 [Rimacalib] (10 µM)
inactive: [1] 0 | [2] 0 | [3] 0 | [4] 0 | [5] 0 | [6] 0 | [7] 0 | [8] 0 | [9] 0 | [10] 0 | [11] 0 | [12] 0 | [13] 0 | [14] 0 | [15] 0 | [16] 0 | [17] 0 | [18] 0 | [19] 0 | [20] 0

C=CC(=O)Nc1cccc(Nc2nc(Nc3ccc(NC4CN(CCF)C4)cc3OC)ncc2C(F)(F)F)c1 (2.5 µM)
inactive: [1] 0 | [2] 0 | [3] 0 | [4] 0 | [5] 0 | [6] 0 | [7] 0 | [8] 0 | [9] 0 | [10] 0 | [11] 0 | [12] 0 | [13] 0 | [14] 0 | [15] 0 | [16] 0 | [17] 0 | [18] 0 | [19] 0 | [20] 0

C=C1C(=O)O[C@H]2C[C@H](C)C(/C=C/C(C)=O)=CC[C@H]12 [Xanthatin] (2.5 µM)
inactive: [1] 0 | [2] 0 | [3] 0 | [4] 0 | [5] 0 | [6] 0 | [7] 0 | [8] 0 | [9] 0 | [10] 0 | [11] 0 | [12] 0 | [13] 0 | [14] 0 | [15] 0 | [16] 0 | [17] 0 | [18] 0 | [19] 0 | [20] 0
